# Reference: the supplement of paper PMC10849652
# Sequences of proteins named here, by UniProt entry; tags and fusion partners are left off. A change or cut given only in a name is not applied to a line headed by its entry.
# UniProt Q9BQD3: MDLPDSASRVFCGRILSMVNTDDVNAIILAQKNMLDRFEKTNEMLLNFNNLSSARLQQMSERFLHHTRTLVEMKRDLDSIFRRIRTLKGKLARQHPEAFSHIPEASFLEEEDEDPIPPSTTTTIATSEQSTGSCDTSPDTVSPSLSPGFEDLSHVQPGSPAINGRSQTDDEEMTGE
# UniProt Q9Y234: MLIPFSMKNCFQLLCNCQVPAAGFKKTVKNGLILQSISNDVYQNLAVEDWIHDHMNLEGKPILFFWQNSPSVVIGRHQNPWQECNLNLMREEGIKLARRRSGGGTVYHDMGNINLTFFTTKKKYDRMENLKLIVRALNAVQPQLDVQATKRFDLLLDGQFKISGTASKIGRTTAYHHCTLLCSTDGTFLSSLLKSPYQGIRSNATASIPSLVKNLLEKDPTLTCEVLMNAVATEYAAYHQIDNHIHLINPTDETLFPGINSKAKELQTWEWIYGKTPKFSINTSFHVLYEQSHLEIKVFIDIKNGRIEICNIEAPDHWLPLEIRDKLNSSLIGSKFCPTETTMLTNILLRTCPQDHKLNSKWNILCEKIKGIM
# UniProt Q99538: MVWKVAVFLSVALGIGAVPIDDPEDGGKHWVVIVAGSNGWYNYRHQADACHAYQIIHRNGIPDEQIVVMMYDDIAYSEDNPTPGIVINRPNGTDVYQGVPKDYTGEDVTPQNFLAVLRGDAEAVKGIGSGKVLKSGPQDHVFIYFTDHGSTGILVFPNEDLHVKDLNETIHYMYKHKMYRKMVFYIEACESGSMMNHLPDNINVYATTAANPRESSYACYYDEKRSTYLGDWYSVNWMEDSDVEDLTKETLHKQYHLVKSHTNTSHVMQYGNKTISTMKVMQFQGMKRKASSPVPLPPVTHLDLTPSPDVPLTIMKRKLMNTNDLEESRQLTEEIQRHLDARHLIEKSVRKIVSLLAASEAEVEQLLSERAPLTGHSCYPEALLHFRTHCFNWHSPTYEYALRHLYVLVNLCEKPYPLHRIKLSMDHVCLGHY
# UniProt Q07954: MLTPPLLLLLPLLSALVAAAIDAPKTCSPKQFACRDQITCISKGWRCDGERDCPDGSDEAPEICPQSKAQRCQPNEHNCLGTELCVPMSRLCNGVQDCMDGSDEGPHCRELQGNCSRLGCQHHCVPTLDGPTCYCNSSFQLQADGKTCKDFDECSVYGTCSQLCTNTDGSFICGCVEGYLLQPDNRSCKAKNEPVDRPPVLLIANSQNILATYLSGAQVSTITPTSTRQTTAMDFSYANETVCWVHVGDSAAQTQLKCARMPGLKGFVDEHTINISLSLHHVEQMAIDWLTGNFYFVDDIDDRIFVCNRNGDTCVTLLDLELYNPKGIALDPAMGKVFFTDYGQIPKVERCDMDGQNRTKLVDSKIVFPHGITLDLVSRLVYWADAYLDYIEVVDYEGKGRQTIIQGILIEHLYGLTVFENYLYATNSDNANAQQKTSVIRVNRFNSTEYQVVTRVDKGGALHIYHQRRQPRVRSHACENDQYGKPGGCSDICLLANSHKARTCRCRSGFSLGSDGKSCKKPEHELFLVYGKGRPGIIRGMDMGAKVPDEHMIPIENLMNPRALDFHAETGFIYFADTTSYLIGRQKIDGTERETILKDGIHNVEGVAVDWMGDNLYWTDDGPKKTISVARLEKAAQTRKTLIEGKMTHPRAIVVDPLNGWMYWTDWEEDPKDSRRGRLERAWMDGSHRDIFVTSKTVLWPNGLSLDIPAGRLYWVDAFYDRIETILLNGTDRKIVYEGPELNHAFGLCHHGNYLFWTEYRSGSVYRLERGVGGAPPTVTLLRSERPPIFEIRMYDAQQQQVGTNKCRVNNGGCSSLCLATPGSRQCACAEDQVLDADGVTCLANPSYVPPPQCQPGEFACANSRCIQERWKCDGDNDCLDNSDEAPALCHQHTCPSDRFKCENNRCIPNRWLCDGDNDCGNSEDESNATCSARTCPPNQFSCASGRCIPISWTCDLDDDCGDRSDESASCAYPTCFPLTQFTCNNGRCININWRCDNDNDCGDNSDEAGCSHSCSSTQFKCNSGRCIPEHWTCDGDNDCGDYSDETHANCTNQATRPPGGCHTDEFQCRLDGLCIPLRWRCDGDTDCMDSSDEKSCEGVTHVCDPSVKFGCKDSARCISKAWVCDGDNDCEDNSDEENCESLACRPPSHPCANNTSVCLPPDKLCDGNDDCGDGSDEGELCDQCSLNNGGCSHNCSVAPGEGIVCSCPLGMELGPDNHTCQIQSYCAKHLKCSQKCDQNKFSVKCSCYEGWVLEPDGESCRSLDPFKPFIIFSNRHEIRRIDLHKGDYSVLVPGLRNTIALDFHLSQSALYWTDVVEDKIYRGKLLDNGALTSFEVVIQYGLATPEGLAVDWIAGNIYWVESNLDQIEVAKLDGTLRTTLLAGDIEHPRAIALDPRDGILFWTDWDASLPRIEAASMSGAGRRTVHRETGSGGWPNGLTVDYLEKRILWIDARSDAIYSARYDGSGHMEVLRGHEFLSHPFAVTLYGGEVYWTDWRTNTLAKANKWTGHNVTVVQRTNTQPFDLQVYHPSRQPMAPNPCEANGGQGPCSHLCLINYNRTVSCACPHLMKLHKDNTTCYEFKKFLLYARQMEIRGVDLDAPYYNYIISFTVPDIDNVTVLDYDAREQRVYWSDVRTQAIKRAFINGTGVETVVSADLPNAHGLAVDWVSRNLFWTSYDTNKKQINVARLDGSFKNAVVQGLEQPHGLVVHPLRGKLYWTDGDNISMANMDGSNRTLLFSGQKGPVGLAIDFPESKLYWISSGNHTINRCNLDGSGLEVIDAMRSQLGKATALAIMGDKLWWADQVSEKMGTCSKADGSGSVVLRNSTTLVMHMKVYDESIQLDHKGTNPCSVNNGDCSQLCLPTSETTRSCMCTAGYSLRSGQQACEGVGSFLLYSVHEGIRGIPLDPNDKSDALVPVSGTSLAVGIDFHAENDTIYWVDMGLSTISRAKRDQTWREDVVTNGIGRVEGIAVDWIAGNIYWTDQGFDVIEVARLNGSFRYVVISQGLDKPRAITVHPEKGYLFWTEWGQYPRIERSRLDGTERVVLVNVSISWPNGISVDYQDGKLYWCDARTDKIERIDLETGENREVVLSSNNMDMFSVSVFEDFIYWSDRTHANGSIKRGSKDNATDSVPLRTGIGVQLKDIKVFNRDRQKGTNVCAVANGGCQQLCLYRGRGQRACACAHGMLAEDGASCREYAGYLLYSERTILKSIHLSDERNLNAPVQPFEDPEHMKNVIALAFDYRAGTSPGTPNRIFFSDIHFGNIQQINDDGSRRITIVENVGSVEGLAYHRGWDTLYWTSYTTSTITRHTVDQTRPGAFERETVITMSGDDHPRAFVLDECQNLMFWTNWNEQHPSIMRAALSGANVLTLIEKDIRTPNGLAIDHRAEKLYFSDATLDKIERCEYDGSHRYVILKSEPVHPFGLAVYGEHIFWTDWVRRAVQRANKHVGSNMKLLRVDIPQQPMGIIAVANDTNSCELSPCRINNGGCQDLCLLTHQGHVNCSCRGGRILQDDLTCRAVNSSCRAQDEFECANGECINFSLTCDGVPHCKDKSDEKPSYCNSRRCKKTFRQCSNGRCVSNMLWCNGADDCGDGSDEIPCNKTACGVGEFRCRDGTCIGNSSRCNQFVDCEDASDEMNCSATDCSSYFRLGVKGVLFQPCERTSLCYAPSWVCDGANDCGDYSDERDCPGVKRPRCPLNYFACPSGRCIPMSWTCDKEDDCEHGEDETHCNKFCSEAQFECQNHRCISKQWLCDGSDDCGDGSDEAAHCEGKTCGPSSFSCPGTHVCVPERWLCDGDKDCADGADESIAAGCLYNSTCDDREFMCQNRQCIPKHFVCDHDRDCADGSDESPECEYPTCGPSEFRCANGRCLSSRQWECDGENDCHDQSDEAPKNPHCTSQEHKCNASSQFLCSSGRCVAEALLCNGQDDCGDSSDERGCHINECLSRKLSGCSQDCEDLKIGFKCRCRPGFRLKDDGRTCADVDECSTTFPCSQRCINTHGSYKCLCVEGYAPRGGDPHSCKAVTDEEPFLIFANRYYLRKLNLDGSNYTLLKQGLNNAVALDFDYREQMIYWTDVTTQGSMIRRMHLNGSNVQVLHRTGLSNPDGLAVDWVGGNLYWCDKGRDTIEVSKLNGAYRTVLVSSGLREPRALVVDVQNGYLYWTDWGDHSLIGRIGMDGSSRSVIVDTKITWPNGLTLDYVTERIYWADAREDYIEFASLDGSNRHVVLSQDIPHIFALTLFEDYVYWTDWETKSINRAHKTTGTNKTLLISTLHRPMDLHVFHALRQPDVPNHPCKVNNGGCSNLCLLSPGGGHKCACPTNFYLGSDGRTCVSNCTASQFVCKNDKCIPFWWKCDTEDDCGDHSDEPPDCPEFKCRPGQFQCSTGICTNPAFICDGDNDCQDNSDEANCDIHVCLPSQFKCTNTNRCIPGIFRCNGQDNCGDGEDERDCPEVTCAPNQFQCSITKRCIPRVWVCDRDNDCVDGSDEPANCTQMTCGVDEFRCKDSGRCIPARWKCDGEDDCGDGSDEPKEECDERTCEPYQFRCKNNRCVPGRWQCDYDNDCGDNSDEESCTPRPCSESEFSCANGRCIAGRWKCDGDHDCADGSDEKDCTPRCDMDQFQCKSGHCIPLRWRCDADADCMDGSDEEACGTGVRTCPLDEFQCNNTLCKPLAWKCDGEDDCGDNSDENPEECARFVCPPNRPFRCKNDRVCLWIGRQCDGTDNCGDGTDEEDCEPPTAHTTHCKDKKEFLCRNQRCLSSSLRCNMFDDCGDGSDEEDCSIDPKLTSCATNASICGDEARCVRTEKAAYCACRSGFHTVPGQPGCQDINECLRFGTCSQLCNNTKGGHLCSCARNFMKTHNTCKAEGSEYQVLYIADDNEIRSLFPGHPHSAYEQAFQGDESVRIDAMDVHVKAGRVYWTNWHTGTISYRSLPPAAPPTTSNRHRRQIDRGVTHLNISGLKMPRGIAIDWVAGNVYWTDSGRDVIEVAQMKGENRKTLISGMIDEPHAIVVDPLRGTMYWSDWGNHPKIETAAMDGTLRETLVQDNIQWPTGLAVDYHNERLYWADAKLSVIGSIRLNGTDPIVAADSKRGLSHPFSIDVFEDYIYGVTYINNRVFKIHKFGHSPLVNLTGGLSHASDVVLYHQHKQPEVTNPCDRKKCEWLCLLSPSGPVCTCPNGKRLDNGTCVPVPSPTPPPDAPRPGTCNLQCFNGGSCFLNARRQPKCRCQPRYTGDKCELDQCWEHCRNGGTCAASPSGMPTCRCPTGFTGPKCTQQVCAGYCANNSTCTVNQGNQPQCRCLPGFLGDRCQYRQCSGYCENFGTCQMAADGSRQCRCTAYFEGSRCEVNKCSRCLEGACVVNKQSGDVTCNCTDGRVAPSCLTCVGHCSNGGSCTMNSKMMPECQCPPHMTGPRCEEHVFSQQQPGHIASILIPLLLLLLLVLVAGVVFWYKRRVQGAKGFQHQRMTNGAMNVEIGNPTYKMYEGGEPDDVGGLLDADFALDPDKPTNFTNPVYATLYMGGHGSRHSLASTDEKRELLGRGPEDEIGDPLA
# UniProt Q08380: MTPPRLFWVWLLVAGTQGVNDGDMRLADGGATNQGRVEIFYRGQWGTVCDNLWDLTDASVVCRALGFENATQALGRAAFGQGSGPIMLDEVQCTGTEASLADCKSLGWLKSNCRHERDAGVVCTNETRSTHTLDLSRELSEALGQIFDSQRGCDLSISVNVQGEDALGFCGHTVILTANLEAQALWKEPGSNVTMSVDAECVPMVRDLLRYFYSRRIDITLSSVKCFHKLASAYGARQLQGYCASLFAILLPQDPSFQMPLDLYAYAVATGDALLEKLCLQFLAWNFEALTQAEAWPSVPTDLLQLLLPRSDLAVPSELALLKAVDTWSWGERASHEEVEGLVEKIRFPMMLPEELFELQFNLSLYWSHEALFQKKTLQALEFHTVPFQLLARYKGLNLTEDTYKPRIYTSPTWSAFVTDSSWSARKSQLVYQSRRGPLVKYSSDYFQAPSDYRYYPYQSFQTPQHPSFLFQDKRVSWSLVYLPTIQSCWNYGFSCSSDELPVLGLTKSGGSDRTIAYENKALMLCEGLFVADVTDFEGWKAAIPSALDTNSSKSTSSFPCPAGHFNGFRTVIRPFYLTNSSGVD
# UniProt Q53QV2: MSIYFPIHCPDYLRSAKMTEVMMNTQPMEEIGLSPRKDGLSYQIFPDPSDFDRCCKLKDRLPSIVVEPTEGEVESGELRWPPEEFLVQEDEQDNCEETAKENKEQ
# UniProt P23490: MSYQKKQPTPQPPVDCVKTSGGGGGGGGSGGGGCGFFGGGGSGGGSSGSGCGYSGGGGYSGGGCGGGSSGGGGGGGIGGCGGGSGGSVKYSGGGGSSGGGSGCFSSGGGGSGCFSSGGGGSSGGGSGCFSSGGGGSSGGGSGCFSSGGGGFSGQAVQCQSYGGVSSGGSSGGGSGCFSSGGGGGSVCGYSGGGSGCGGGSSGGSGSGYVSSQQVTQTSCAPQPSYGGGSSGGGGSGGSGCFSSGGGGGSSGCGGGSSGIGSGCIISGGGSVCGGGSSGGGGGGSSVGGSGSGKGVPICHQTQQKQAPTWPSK
# The list shows a part of the results.
# Experiments:
# Experiment in all cases: log2 fold change, soluble protein after heating vs DMSO (PISA); higher = thermal stabilisation; K562 cells, 10 uM, 30 min; active = over 0.2 and 3.5 SD of the protein, either way, in both replicates (recomputed)
# [1] = compound: CO[C@H]1C[C@@H]2CC[C@@H](C)[C@@](O)(O2)C(=O)C(=O)N2CCCC[C@H]2C(=O)O[C@H]([C@H](C)C[C@@H]2CC[C@H](n3cnnn3)[C@H](OC)C2)CC(=O)[C@H](C)/C=C(\C)[C@@H](O)[C@@H](OC)C(=O)[C@H](C)C[C@H](C)/C=C/C=C/C=C/1C [zotarolimus]
# Summary of the method: (§1)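 Aliquots of K562 cells (2×10^6 cells/mL) treated with 10 μM compound for 30 min were heated for 3 min over 48°C-58°C. After pooling and extraction in PBS with 0.5% NP-40 at 4°C, soluble protein from a 21,000xg, 90 min spin was quantified by TMTpro 16plex LC-MS/MS with channel sums equalised. Thermal stability is expressed against control samples, from duplicates, as a log2 fold change.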
# [2] = compound: COc1cc(C(=O)O)ccc1NC(=O)[C@@H]1N[C@@H](CC(C)(C)C)[C@](C#N)(c2ccc(Cl)cc2F)[C@H]1c1cccc(Cl)c1F [idasanutlin]
# Summary of the method: as §1
# [3] = compound: COc1cc(Nc2ncc3c(n2)-c2ccc(Cl)cc2C(c2c(F)cccc2OC)=NC3)ccc1C(=O)O [alisertib]
# Summary of the method: as §1
# [4] = compound: COc1cccc2cc(-c3nc([C@H]4CC[C@H](C(=O)O)CC4)n4ncnc(N)c34)[nH]c12
# Summary of the method: as §1
# [5] = compound: CS(=O)(=O)N1CCN(Cc2cc3nc(-c4cccc5[nH]ncc45)nc(N4CCOCC4)c3s2)CC1 [pictilisib]
# Summary of the method: as §1
# [6] = compound: COc1cc2nc(-c3cc(F)ccc3O)nc(N[C@@H]3CNC[C@H]3C(C)(C)O)c2cc1OC
# Summary of the method: as §1
# [7] = compound: CS(=O)(=O)CCNCc1ccc(-c2ccc3ncnc(Nc4ccc(OCc5cccc(F)c5)c(Cl)c4)c3c2)o1 [lapatinib]
# Summary of the method: as §1
# [8] = compound: COc1cc2ncnc(Nc3ccc(F)c(Cl)c3)c2cc1OCCCN1CCOCC1 [gefitinib]
# Summary of the method: as §1
# [9] = compound: CON(C)C(=O)N1N=C(c2cc(F)ccc2F)S[C@@]1(CCCN)c1ccccc1 [filanesib]
# Summary of the method: as §1
target,measurement,setting,value
LEPROT (UniProt O15243),log2 fold change,[1],inactive: -0.056
same,log2 fold change,[2],inactive: 0.31
same,log2 fold change,[3],inactive: -0.027
same,log2 fold change,[4],inactive: 0.041
same,log2 fold change,[5],inactive: -0.212
KXD1 (UniProt Q9BQD3),log2 fold change,[1],inactive: 0.073
same,log2 fold change,[2],inactive: -0.021
same,log2 fold change,[3],inactive: -0.019
same,log2 fold change,[6],inactive: 0.042
same,log2 fold change,[4],active: 0.342
same,log2 fold change,[7],inactive: -0.054
same,log2 fold change,[5],inactive: 0.063
LBHD1 (UniProt Q9BQE6),log2 fold change,[1],inactive: 0
LIPT1 (UniProt Q9Y234),log2 fold change,[2],inactive: -0.004
same,log2 fold change,[3],inactive: -0.072
same,log2 fold change,[4],inactive: -0.312
LRP5 (UniProt O75197),log2 fold change,[1],inactive: -0.224
same,log2 fold change,[6],inactive: -0.029
same,log2 fold change,[8],inactive: -0.021
same,log2 fold change,[7],inactive: 0.245
same,log2 fold change,[5],inactive: 0.023
LAMA2 (UniProt P24043),log2 fold change,[1],inactive: -0.331
same,log2 fold change,[3],inactive: -0.028
same,log2 fold change,[8],inactive: -0.056
same,log2 fold change,[4],inactive: -0.001
LCOR isoform 3 (UniProt Q96JN0),log2 fold change,[2],inactive: -0.001
LAPTM5 (UniProt Q13571),log2 fold change,[1],inactive: -0.185
same,log2 fold change,[2],inactive: 0.142
same,log2 fold change,[5],inactive: 0.129
LATS1 (UniProt O95835),log2 fold change,[5],inactive: -0.072
LGMN (UniProt Q99538),log2 fold change,[6],inactive: -0.192
same,log2 fold change,[7],inactive: 0.021
same,log2 fold change,[5],inactive: -0.03
LMLN isoform 3 (UniProt Q96KR4),log2 fold change,[6],inactive: -0.067
same,log2 fold change,[7],inactive: -0.002
LAMB2 (UniProt P55268),log2 fold change,[3],inactive: 0.197
same,log2 fold change,[6],inactive: -0.14
same,log2 fold change,[4],inactive: 0.068
same,log2 fold change,[7],inactive: 0.164
LRP1 (UniProt Q07954),log2 fold change,[2],inactive: -0.173
same,log2 fold change,[3],inactive: 0.287
same,log2 fold change,[8],inactive: 0.104
same,log2 fold change,[4],inactive: 0
same,log2 fold change,[5],inactive: 0.116
LGALS3 (UniProt P17931),log2 fold change,[3],inactive: 1.44
same,log2 fold change,[8],inactive: 0.174
same,log2 fold change,[4],inactive: -0.035
same,log2 fold change,[5],inactive: 0.038
LDHD (UniProt Q86WU2),log2 fold change,[1],inactive: 0.014
LGALS3BP (UniProt Q08380),log2 fold change,[2],inactive: -0.063
same,log2 fold change,[8],inactive: -0.001
LIG4 (UniProt P49917),log2 fold change,[9],inactive: -0.093
same,log2 fold change,[8],inactive: 0.224
same,log2 fold change,[5],inactive: 0.032
LAMA5 (UniProt O15230),log2 fold change,[1],inactive: -0.136
same,log2 fold change,[2],inactive: 0.047
same,log2 fold change,[3],inactive: -0.03
same,log2 fold change,[8],inactive: 0.031
same,log2 fold change,[4],inactive: -0.067
same,log2 fold change,[5],inactive: -0.077
LBH (UniProt Q53QV2),log2 fold change,[2],inactive: 0.112
same,log2 fold change,[3],inactive: 0.09
same,log2 fold change,[6],inactive: -0.352
same,log2 fold change,[8],inactive: -0.045
same,log2 fold change,[4],inactive: 0.169
same,log2 fold change,[7],inactive: -0.238
LIMS1 isoform 5 (UniProt P48059),log2 fold change,[1],inactive: -0.218
LOR (UniProt P23490),log2 fold change,[3],inactive: 1.26
same,log2 fold change,[4],inactive: 0.015
LHFPL2 (UniProt Q6ZUX7),log2 fold change,[6],inactive: 0.052
same,log2 fold change,[7],inactive: -0.071
LOX (UniProt P28300),log2 fold change,[3],inactive: -0.111
same,log2 fold change,[8],inactive: -0.391
same,log2 fold change,[4],inactive: 0.146

# Not a retest: entries from further up.
target,measurement,setting,value
LBHD1 (UniProt Q9BQE6),log2 fold change,[1],inactive: 0
LIPT1 (UniProt Q9Y234),log2 fold change,[2],inactive: -0.004
same,log2 fold change,[3],inactive: -0.072
same,log2 fold change,[4],inactive: -0.312
LRP5 (UniProt O75197),log2 fold change,[1],inactive: -0.224
same,log2 fold change,[6],inactive: -0.029
same,log2 fold change,[8],inactive: -0.021
same,log2 fold change,[7],inactive: 0.245
same,log2 fold change,[5],inactive: 0.023
LAMA2 (UniProt P24043),log2 fold change,[1],inactive: -0.331
same,log2 fold change,[3],inactive: -0.028
same,log2 fold change,[8],inactive: -0.056
same,log2 fold change,[4],inactive: -0.001
LCOR isoform 3 (UniProt Q96JN0),log2 fold change,[2],inactive: -0.001
